Experimental data taken from US20070179152A1, “Combination therapy for the treatment of neoplasms” (priority 2003, published 2007).

Key:
[1] = system: HCT116 cells; assay: Anti-proliferation assay (Alamar Blue metabolism), HCT116; assay type: cell-based; details: Homo sapiens, itraconazole 0 μM, read-out: Percent inhibition of Alamar Blue Metabolism
Description: Amiodarone, nicardipine, and bepridil were obtained from Sigma Chemical Co. (St. Louis, Mo.). Itraconazole was obtained from […].). Stock solutions (1000×) of each compound were prepared in DMSO and stored at -20° C. Master stock plates of 2-fold serial dilutions of individual compounds were prepared in 384-well plates. Combination matrices of test compounds were generated from these master stock plates by dilution into growth media described above. […] The combination matrices were used immediately and discarded. The anti-proliferation assays were performed in 384 well plates. […] Cells were diluted in culture media such that 3,000 SKMEL cells, or 1,500 cells for all the other cell lines, were delivered in 35 μl of media into each assay well. […] Then, 4.5 μl of 10× stock solutions from the combination matrices were added to 40 μl of culture media. […] Quantification, using the LJL Analyst AD reader (LJL Biosystems), was taken in the middle of the well with high attenuation, a 100 msec read time, an excitation filter at 530 nm, and an emission filter at 575 nm. For some experiments, quantification was performed using a Wallac Victor^2 reader. Measurements were taken at the top of the well with stabilized energy lamp control; a 100 msec read time, an excitation filter at 530 nm, and an emission filter at 590 nm. No significant differences between plate readers were measured. […] Negative inhibition values result from local variations in treated wells as compared to untreated wells.

[2] = system: A549 cells; assay: Anti-proliferation assay (Alamar Blue metabolism), A549; assay type: cell-based
Description: (§1) Itraconazole was obtained from […].). Stock solutions (1000×) of each compound were prepared in DMSO and stored at -20° C. Master stock plates of 2-fold serial dilutions of individual compounds were prepared in 384-well plates. Combination matrices of test compounds were generated from these master stock plates by dilution into growth media described above. […] The combination matrices were used immediately and discarded. The anti-proliferation assays were performed in 384 well plates. […] Cells were diluted in culture media such that 3,000 SKMEL cells, or 1,500 cells for all the other cell lines, were delivered in 35 μl of media into each assay well. […] Then, 4.5 μl of 10× stock solutions from the combination matrices were added to 40 μl of culture media. […] Quantification, using the LJL Analyst AD reader (LJL Biosystems), was taken in the middle of the well with high attenuation, a 100 msec read time, an excitation filter at 530 nm, and an emission filter at 575 nm. For some experiments, quantification was performed using a Wallac Victor^2 reader. Measurements were taken at the top of the well with stabilized energy lamp control; a 100 msec read time, an excitation filter at 530 nm, and an emission filter at 590 nm.

[3] = system: SKMEL-28 cells; assay: Anti-proliferation assay (Alamar Blue metabolism), SKMEL-28; assay type: cell-based; details: Homo sapiens, SK-MEL-28; read-out: Percent inhibition of Alamar Blue Metabolism
Description: as §1

[4] = system: DU145 cells; assay: Anti-proliferation assay (Alamar Blue metabolism), DU145; assay type: cell-based, human; details: itraconazole 0 μM
Description: as §1

[5] = Homo sapiens, A549, read-out: Percent inhibition of Alamar Blue Metabolism

**Q.** How did the inhibition at 0.23 µM ([1]; HCT-116, amiodarone 0.23 μM) turn out when `CCCCc1oc2ccccc2c1C(=O)c1cc(I)c(OCCN(CC)CC)c(I)c1` [Amiodarone, (2-Butyl-3-benzofuranyl)(4-(2-(diethylamino)ethoxy)-3,5-diidophenyl)methanone] was run?
**A.** Its inhibition at 0.23 µM is -3.7%.

**Q.** What about the inhibition at 0.46 µM ([1]; HCT-116, amiodarone 0.46 μM) of the same compound?
**A.** The inhibition at 0.46 µM was -3.7%.

**Q.** What about the inhibition at 0.92 µM ([1]; HCT-116, amiodarone 0.92 μM) of the same compound?
**A.** The inhibition at 0.92 µM was 3.1%.

**Q.** What about the inhibition at 1.8 µM ([1]; HCT-116, amiodarone 1.8 μM) of the same compound?
**A.** The inhibition at 1.8 µM was -1.4%.

**Q.** And the inhibition at 3.7 µM ([1]; HCT-116, amiodarone 3.7 μM)?
**A.** The inhibition at 3.7 µM was 7.6%.

**Q.** What about the inhibition at 7.3 µM ([1]; HCT-116, amiodarone 7.3 μM) of the same compound?
**A.** The inhibition at 7.3 µM was 7.4%.

**Q.** What about the inhibition at 15 µM ([1]; HCT-116, amiodarone 15 μM) of the same compound?
**A.** The inhibition at 15 µM was 36%.

**Q.** And the inhibition at 29 µM ([1]; HCT-116, amiodarone 29 μM)?
**A.** Its inhibition at 29 µM is 94.7%.

**Q.** And the inhibition at 0.23 µM [2, 5]?
**A.** Its inhibition at 0.23 µM is 2%.

**Q.** And the inhibition at 0.46 µM [2, 5]?
**A.** The inhibition at 0.46 µM was -1.6%.

**Q.** And the inhibition at 1.8 µM [2, 5]?
**A.** The inhibition at 1.8 µM was 3.2%.

**Q.** What about the inhibition at 3.7 µM [2, 5] of the same compound?
**A.** The inhibition at 3.7 µM was 2.6%.

**Q.** What about the inhibition at 7.3 µM [2, 5] of the same compound?
**A.** The inhibition at 7.3 µM was -3.6%.

**Q.** What about the inhibition at 15 µM [2, 5] of the same compound?
**A.** Its inhibition at 15 µM is 17.3%.

**Q.** What about the inhibition at 29 µM [2, 5] of the same compound?
**A.** Its inhibition at 29 µM is 90.7%.

**Q.** And the “Percent inhibition of Alamar Blue Metabolism” value ([2]; amiodarone 7.3 μM, itraconazole 0 μM)?
**A.** Its value is “practically no inhibition”.

**Q.** What about the inhibition at 0.23 µM [3] of the same compound?
**A.** The inhibition at 0.23 µM was 2.2%.

**Q.** And the inhibition at 0.92 µM [3]?
**A.** The inhibition at 0.92 µM was 3.8%.

**Q.** And the inhibition at 1.8 µM [3]?
**A.** The inhibition at 1.8 µM was 0.8%.

**Q.** What about the inhibition at 3.7 µM [3] of the same compound?
**A.** The inhibition at 3.7 µM was -0.3%.

**Q.** What about the inhibition at 7.3 µM [3] of the same compound?
**A.** The inhibition at 7.3 µM was 1.4%.

**Q.** And the inhibition at 15 µM [3]?
**A.** The inhibition at 15 µM was 22%.

**Q.** What about the inhibition at 29 µM [3] of the same compound?
**A.** The inhibition at 29 µM was 96.1%.

**Q.** What about the inhibition at 0.23 µM ([4]; Homo sapiens, DU-145, amiodarone 0.23 μM, read-out: Percent inhibition of Alamar Blue Metabolism) of the same compound?
**A.** Its inhibition at 0.23 µM is -6%.

**Q.** And the inhibition at 0.46 µM ([4]; Homo sapiens, DU-145, amiodarone 0.46 μM, read-out: Percent inhibition of Alamar Blue Metabolism)?
**A.** The inhibition at 0.46 µM was -3%.

**Q.** And the inhibition at 0.92 µM ([4]; Homo sapiens, DU-145, amiodarone 0.92 μM, read-out: Percent inhibition of Alamar Blue Metabolism)?
**A.** The inhibition at 0.92 µM was 0.4%.

**Q.** What about the inhibition at 1.8 µM ([4]; Homo sapiens, DU-145, amiodarone 1.8 μM, read-out: Percent inhibition of Alamar Blue Metabolism) of the same compound?
**A.** The inhibition at 1.8 µM was -3.1%.

**Q.** And the inhibition at 3.7 µM ([4]; Homo sapiens, DU-145, amiodarone 3.7 μM, read-out: Percent inhibition of Alamar Blue Metabolism)?
**A.** The inhibition at 3.7 µM was 2.3%.

**Q.** And the inhibition at 7.3 µM ([4]; Homo sapiens, DU-145, amiodarone 7.3 μM, read-out: Percent inhibition of Alamar Blue Metabolism)?
**A.** Its inhibition at 7.3 µM is -0.8%.

**Q.** And the inhibition at 15 µM ([4]; Homo sapiens, DU-145, amiodarone 15 μM, read-out: Percent inhibition of Alamar Blue Metabolism)?
**A.** The inhibition at 15 µM was -4.3%.

**Q.** And the inhibition at 29 µM ([4]; Homo sapiens, DU-145, amiodarone 29 μM, read-out: Percent inhibition of Alamar Blue Metabolism)?
**A.** The inhibition at 29 µM was 60.5%.

**Q.** And the “Percent inhibition of Alamar Blue Metabolism” value ([4]; amiodarone 29 μM)?
**A.** The value was 50.5%.
